Test results: patent US20070248607A1, “NEGATIVE IMMUNOMODULATION OF IMMUNE RESPONSES BY NKG2D-POSITIVE CD4+ CELLS” (priority 2005, published 2007)
These are yes or no findings as the source states them, for the method shown. In cells and extracts the contact can be indirect. Here binding means that the protein was enriched with, or labelled near, the bait; the list need not be complete.

Molecular target: T1, ERP5 on the cell surface of tumor cells (U266, Hela, A375) (UniProt Q15084 20-440, limits assumed)
T1 construct: whole, on cells; Endogenous protein of tumor cell lines; also called disulfide isomerase-related protein P5; surface ERP5
T1 sequence (looked up): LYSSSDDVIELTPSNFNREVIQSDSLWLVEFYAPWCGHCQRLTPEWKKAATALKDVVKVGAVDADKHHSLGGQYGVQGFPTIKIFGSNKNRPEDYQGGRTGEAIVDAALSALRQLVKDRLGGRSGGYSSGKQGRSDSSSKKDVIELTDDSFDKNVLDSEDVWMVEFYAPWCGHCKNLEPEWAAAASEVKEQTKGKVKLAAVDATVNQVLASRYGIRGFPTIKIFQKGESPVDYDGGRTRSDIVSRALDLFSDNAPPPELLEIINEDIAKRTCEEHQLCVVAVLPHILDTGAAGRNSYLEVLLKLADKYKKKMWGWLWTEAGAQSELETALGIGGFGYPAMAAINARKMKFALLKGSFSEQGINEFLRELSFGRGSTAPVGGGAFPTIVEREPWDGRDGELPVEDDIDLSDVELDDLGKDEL
Experiment: affinity chromatography of U266 outer membrane proteins on MICA beads, SDS-PAGE, silver staining, mass spectrometry

binding: binds
B1: MICA-conjugated sepharose beads (ligand)
chain: EPHSLRYNLTVLSWDGSVQSGFLTEVHLDGQPFLRCDRQKCRAKPQGQWAEDVLGNKTWDRETRDLTGNGKDLRMTLAHIKDQKEGLHSLQEIRVCEIHEDNSTRSSQHFYYDGELFLSQNLETKEWTMPQSSRAQTLAMNVRNFLKEDAMKTKTHYHAMHADCLQELRRYLKSGVVLRRTVPPMVNVTRSEASEGNITVTCRASGFYPWNITLSWRQDGVSLSHDTQQWGDVLPDGNGTYQTWVATRICQGEEQRFTCYMEHSGNHSTHPVPSGK
modifications: coupled to sepharose beads
